# Library screening results

Measurements from “University of Dundee, Small-Polar-MMV Screening Library” (2021), ChEMBL document CHEMBL3988442.

Values are the deposited “Percent Effect”, in %. The controls that fix the scale are not given in the record; negative values are as filed. This is an unselected part of the compounds tested.

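Whole-cell assay for inhibitors of Mycobacterium tuberculosis growth, labelled Cornell in the record; the read-out is not stated. The concentration is filed as 10 mM, unlikely as a test dose, so the dose is not known. The record gives no direction; compounds strong in two other growth screens of this library score well above the rest, so higher reads as stronger inhibition. About 53,000 compounds were tested under these conditions; 1.7% (about 900) showed 50% or more at least once.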

Compound: CNCC(=O)N[C@H]1CN(c2nc(C)c3c(n2)CCCC3)C[C@@H]1C1CC1
percent effect: -4.569%

Compound: C[C@@H]1CN(C2(C(=O)N3CCNCC3)Cc3ccccc3C2)C[C@H](C)O1
percent effect: 11.5%

Compound: C[C@@H]1CN(C(=O)CCc2cnn(C)c2)CC[C@@]1(O)C1CCOCC1
percent effect: -52.8%

Compound: CN1CCc2cc(C(CNS(=O)(=O)c3cccs3)N3CCCC3)ccc21 (configuration not stated)
percent effect: -19.97%

Compound: CCn1c(Cn2cccn2)nnc1C1CCN(Cc2ccc(C)o2)CC1
percent effect: -22.01%

Compound: CSc1ccc(-c2nc(CN3CCNCC3C)c(C)o2)cc1 (configuration not stated)
percent effect: -2.439%

Compound: COC(=O)c1cc2c(=O)[nH]c(=O)n(CCc3ccccc3)c2nc1C
percent effect: -22.25%

Compound: CCN(CC)CC(=O)NCCc1csc(N2CCCC2)n1
percent effect: 10.15%

Compound: CCCn1c(C)c(CC(=O)NCCOC)c2c1CC(C)(C)CC2=O
percent effect: 16.4%

Compound: O=C(O)C1(Cc2ccccc2F)CCCN(c2ncnc3[nH]ccc23)C1 (configuration not stated)
percent effect: 3.353%

Compound: CC(C)N(C)CC(=O)Nc1ccc(-n2ccc(C(N)=O)n2)cc1
percent effect: -12.19%

Compound: CN(C)c1nc2c(c(=O)[nH]1)CCN(C(=O)c1cccc3nccnc13)C2
percent effect: -47%

Compound: [H][C@]12CC(COCC(=O)N(C)C)C[C@]1([H])N(Cc1ccco1)CCO2 (some centres not stated)
percent effect: -0.2033%

Compound: CNc1cc(C2CCCN(Cc3ccccc3OCC(=O)O)C2)ccn1 (configuration not stated)
percent effect: 14.7%

Compound: CN(Cc1cn(CC2CCNCC2)nn1)CC1CCCCO1 (configuration not stated)
percent effect: -16.63%

Compound: OC1=C2C(=Nc3n[nH]c(O)c3C2c2ccccc2Cl)CCC1 (configuration not stated)
percent effect: 43.87%

Compound: CCn1cnnc1CNC(=O)NC(c1ccc(OC)cc1)C1CC1 (configuration not stated)
percent effect: -4.295%

Compound: CCS(=O)(=O)N(C)c1ccc(C(=O)N2CCCC(C)C2)cc1 (configuration not stated)
percent effect: 5.817%

Compound: Cn1cc(CN(Cc2ccccc2)CC(O)c2cccs2)cn1 (configuration not stated)
percent effect: 103.2%

Compound: O=C(Nc1ccc2c(c1)OC1(CCCC1)O2)c1ccc(=O)[nH]n1
percent effect: 36.36%

Compound: O=c1cc(CN(Cc2ccco2)C2CC2)nc2ccc(Br)cn12
percent effect: -5.322%

Compound: Cc1nc(NC(C)C)nc2c1CN(Cc1cccs1)CC2
percent effect: -10.29%

Compound: CN(CCCN1CCOCC1)[C@@H]1c2ccccc2C2(CCNCC2)[C@H]1O
percent effect: 15.65%

Compound: CC(C)NC(=O)Nc1ccc(CNCc2cccc(OC(F)F)c2)cc1
percent effect: 14.65%

Compound: Cc1ccc(CN2CCC3(CCCN3C(=O)C(C)C)CC2)o1
percent effect: -8.279%

Compound: O=c1c(S(=O)(=O)N2CCCC2)cccn1Cc1c(F)cccc1Cl
percent effect: 36.22%

Compound: COCCC(=O)N1CCC(Nc2ncc(Br)cn2)CC1
percent effect: -3.284%

Compound: NCCO[C@H]1C[C@@H](O)C12CCN(Cc1c(F)cccc1F)CC2
percent effect: 21.98%

Compound: FC(F)(F)c1cccc(N2CCC(NCc3cccnc3)CC2)c1
percent effect: 2.384%

Compound: [H][C@@]12CS(=O)(=O)C[C@]1([H])N(C(=O)c1cc(C(C)C)on1)CCN2CCOC
percent effect: -1.088%

Compound: CCOC1CCN(C(=O)NCc2cccc(-n3cccn3)c2)CC1
percent effect: 22.48%

Compound: O=S(=O)(c1c(F)cccc1F)N1CCC(Cn2cccn2)CC1
percent effect: -26.69%

Compound: O=C(O)C(F)(F)F.O=S(=O)(NC1CCC12CCN(CC1CCOCC1)CC2)c1ccccc1 (configuration not stated)
percent effect: 24.5%

Compound: CC[C@H](N)C(=O)Nc1nn(CC(F)(F)F)c2cc(OC(C)C)ccc12
percent effect: 15.83%

Compound: CCNC(=O)c1ccc(NC2CCOC3(CCCC3)C2)nn1 (configuration not stated)
percent effect: -15.46%

Compound: O=c1cc(-c2ccccc2)nc2n1CCCCC2
percent effect: -4.717%

Compound: C[C@@H]1CN(S(=O)(=O)c2ccc(F)cc2Cl)C[C@]1(C)O
percent effect: 17.27%

Compound: CC(C)N(C(=O)CCc1ccco1)C1CCOCC1
percent effect: 2.754%

Compound: COc1cc(C(=O)N(Cc2cnn(C)c2)C(C)C)ccc1OCC(N)=O
percent effect: 5.77%

Compound: CC(=O)N1CCN(C(=O)c2cnn(-c3ccccc3Cl)c2)CC1
percent effect: -4.063%

Compound: CC(=O)N(C)C1CCN(C(=O)NCCc2cc(F)ccc2F)CC1
percent effect: 27.86%

Compound: CC(NS(=O)(=O)N(C)C)c1cccc(-n2cccn2)c1 (configuration not stated)
percent effect: 36.23%

Compound: Cc1nc(N)sc1C(=O)N1CCCC(c2nccn2CCCN(C)C)C1 (configuration not stated)
percent effect: 32.38%

Compound: Cc1cccc(CN2CCCC(c3nccs3)C2)n1 (configuration not stated)
percent effect: 24.81%

Compound: CN(C)c1ncc(I)c(C2CCCN2S(C)(=O)=O)n1 (configuration not stated)
percent effect: -57.6%

Compound: O=C(c1ccc[nH]1)N1CCOCC2(CCN(C3CCOCC3)C2)C1 (configuration not stated)
percent effect: 7.948%

Compound: CC(CN1CCOCC1)NC(=O)NCc1cccs1 (configuration not stated)
percent effect: -17.54%

Compound: CCC(CC)C(O)CNC(=O)Cc1c[nH]c2ncccc12 (configuration not stated)
percent effect: 29.86%

Compound: OC(c1cnn(-c2ccccc2)c1)C(F)(F)F (configuration not stated)
percent effect: -4.475%

Once more, the final 6:

For Cc1cccc(CN2CCCC(c3nccs3)C2)n1 (configuration not stated) the result was 24.81%.
For CN(C)c1ncc(I)c(C2CCCN2S(C)(=O)=O)n1 (configuration not stated) the result was -57.6%.
For O=C(c1ccc[nH]1)N1CCOCC2(CCN(C3CCOCC3)C2)C1 (configuration not stated) the result was 7.948%.
For CC(CN1CCOCC1)NC(=O)NCc1cccs1 (configuration not stated) the result was -17.54%.
For CCC(CC)C(O)CNC(=O)Cc1c[nH]c2ncccc12 (configuration not stated) the result was 29.86%.
For OC(c1cnn(-c2ccccc2)c1)C(F)(F)F (configuration not stated) the result was -4.475%.